This assay in a line: qHTS Assay for Modulators of Lamin A Splicing. Particulars: HeLa LMNA splicing GFP/RFP minigene ratio, 48 h. Put shortly: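 S3 HeLa cells stably expressing lamin A-EGFP splicing minigene plus DsRed2, 600 cells/well, 48 h compound exposure at 37C. Laser-scanning cytometry; analysed as GFP (500-530 nm)/RFP (575-640 nm) total intensity ratio; 0.5% DMSO vehicle.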
Where [1] appears, read: measured here: GFP splicing reporter channel.
[2] abbreviates: measured here: RFP viability control channel.

This is an account of results in PubChem BioAssay AID1487 (National Center for Advancing Translational Sciences (NCATS), 2009).

The list shows a part of the results. These are further read-outs of the screen, such as a control signal, another cell line or another target. No call is given for them. The list favours compounds with an active or inconclusive main result. Potencies come from curve fits of mixed quality, noted in brackets.

On to `COc1cc(O)oc1C=Nc1ccc(C(F)(F)F)cc1`, for which, under setting [1], the half-maximal activity concentration (AC50) is 5.01 µM [falling, partial curve].

As to `Cc1ccc(Nc2nc(NCCCN3CCOCC3)nc(N)c2[N+](=O)[O-])cc1`, the AC50 is 15.8 µM [rising, single point] under setting [1] and 15.8 µM [rising, partial curve, poor fit] under setting [2].

In the case of `CC(=O)c1nc2ccccc2n1CCc1ccccc1`, under setting [1], the AC50 was 3.98 µM [falling, full curve, poor fit].

As to `CC[N+](CC)(CC)CC(=O)Nc1ccc(SC(F)F)cc1`, the concentration at half-maximal activity (AC50) under setting [2] is 1.26 µM [falling, full curve, poor fit].

For `CN(C)c1ccc(/C=C/C(=O)c2ccccc2)cc1[N+](=O)[O-]`, the half-maximal activity concentration (AC50) was 35.5 µM [falling, single point] under setting [1] and 35.5 µM [falling, single point] under setting [2].

Regarding `Cc1ccc(C(=O)NCC(c2cccs2)S(=O)(=O)c2ccccc2)cc1C` (stereo not given), the AC50 under setting [2] was 35.5 µM [falling, partial curve, poor fit].

Turning to `CCCCC(CC)CNC(=O)CCCCn1c(=O)[nH]c2ccsc2c1=O` (stereo not given), under setting [1], the half-maximal activity concentration (AC50) was 2.24 µM [falling, full curve].

Regarding `CN(C)S(=O)(=O)Oc1ccccc1C(=O)Nc1ccc(F)cc1F`, under setting [1], the half-maximal activity concentration (AC50) is 0.01 µM [falling, single point].

`CCC(C)(C)C1CCC(=NNC(=S)Nc2cccnc2)CC1` (stereo not given): the AC50 runs as follows: under setting [1], 35.5 µM [rising, single point]; under setting [2], 31.6 µM [rising, single point].

On to `Cc1ccccc1Nc1nc(NCc2ccco2)c2ccccc2n1`, for which the concentration at half-maximal activity (AC50) under setting [2] was 0.891 µM [falling, full curve].

For `CNC(=S)N/N=C/c1cn(Cc2ccc(F)cc2)c2ccccc12`, under setting [2], the half-maximal activity concentration (AC50) is 15.8 µM [rising, partial curve, poor fit].

In the case of `CCOc1ccccc1N(CC(=O)N/N=C/c1cc(Br)ccc1OC)S(C)(=O)=O`, the AC50 under setting [1] was 14.1 µM [rising, single point].

For the compound `O=C(Cc1nc(=O)c2ccccc2s1)Nc1ccccc1`, the AC50 was 10 µM [falling, single point] under setting [1] and 10 µM [falling, partial curve] under setting [2].

On to `COc1cc(C2=NOC(C(=O)Nc3ccc(C)cc3)C2)cc(OC)c1OC` (stereo not given), for which the half-maximal activity concentration (AC50) was 12.6 µM [rising, single point] under setting [1] and 14.1 µM [rising, single point] under setting [2].

`Cc1ccc(S(=O)(=O)N(C)C)cc1NC(=O)c1ccccc1Br`: under setting [2], the AC50 was 12.6 µM [rising, single point].

Consider `COc1ccc(NS(=O)(=O)c2cccc(NC(=O)C34CCC(CC3)C4)c2)cc1`, for which, under setting [2], the AC50 is 10 µM [rising, partial curve].

`Clc1ccccc1COc1ccc(/C=N/n2cnnc2)cc1`: the concentration at half-maximal activity (AC50) reads like this: under setting [1], 12.6 µM [rising, single point]; under setting [2], 25.1 µM [rising, single point].

Take `Cc1ccc(S(=O)(=O)Nc2cc(-c3nn(C)c(=O)c4ccccc34)ccc2N2CCOCC2)cc1`: the AC50 under setting [2] is 12.6 µM [rising, partial curve, poor fit].

Regarding `Nc1ccc(SC(F)(F)F)cc1C(=O)c1ccccc1`, the concentration at half-maximal activity (AC50) is 0.112 µM [falling, full curve, poor fit] under setting [1] and 0.126 µM [falling, full curve, poor fit] under setting [2].

`O=C1NC2=C(CCc3ccccc32)C(c2ccccc2)N1` (stereo not given): the AC50 under setting [1] is 4.47 µM [rising, single point] and the AC50 under setting [2] was 35.5 µM [rising, single point].

Regarding `CCC(Oc1ccccc1)C(=O)Nc1cc(-c2ccccc2F)nn1-c1ccccc1` (stereo not given), under setting [1], the AC50 was 0.447 µM [rising, partial curve, poor fit].

On to `Cc1sc2nc(SCC(=O)Nc3c(C)n(C)n(-c4ccccc4)c3=O)n(C)c(=O)c2c1C`, for which the half-maximal activity concentration (AC50) under setting [2] was 10 µM [rising, partial curve, poor fit].

As for `O=C(COc1cccc(F)c1)N[C@@H](Cc1ccccc1)c1nc2ccccc2[nH]1`, under setting [2], the AC50 was 15.8 µM [rising, single point].

Turning to `Cc1ccc(-n2nnnc2Sc2nc([N+](=O)[O-])nn2C)cc1C`, the AC50 was 20 µM [falling, single point] under setting [1] and 35.5 µM [falling, single point] under setting [2].

On to `COc1ccc2c(c1)O[C@@H](c1ccc3c(c1)OCO3)[C@H](OC(=O)Nc1cc(OC)c(OC)c(OC)c1)C2=O`, for which the half-maximal activity concentration (AC50) under setting [1] was 35.5 µM [rising, single point] and the AC50 under setting [2] is 35.5 µM [rising, single point].

Take `CCN(CC)S(=O)(=O)c1ccc(Cc2ncc(C(F)(F)F)cc2Cl)s1`: the half-maximal activity concentration (AC50) under setting [2] was 20 µM [rising, single point].

On to `Cc1cccc(/C=N/n2c(-c3ccncc3)n[nH]c2=S)c1`, for which the AC50 is, setting by setting: under setting [1], 14.1 µM [rising, single point]; under setting [2], 35.5 µM [rising, single point].

Take `Cc1ccc(C)c(N(C)S(=O)(=O)c2ccc3[nH]cc(C(=O)NCCN4CCOCC4)c(=O)c3c2)c1`: the concentration at half-maximal activity (AC50) under setting [2] is 7.08 µM [rising, partial curve, poor fit].

Turning to `COc1cc(NC(=O)C(CC(C)C)N2Cc3ccccc3C2=O)cc(OC)c1` (stereo not given), the AC50 under setting [1] is 0.794 µM [falling, full curve, poor fit].

For `COc1ccc(NS(=O)(=O)c2cc(NC(=O)c3ccncc3)ccc2N2CCOCC2)cc1`, under setting [2], the AC50 was 10 µM [falling, partial curve].

Turning to `COc1ccccc1NS(=O)(=O)c1cc(NC(=S)Nc2cc(C)cc(C)c2)ccc1Cl`, the half-maximal activity concentration (AC50) by setting is: under setting [1], 20 µM [rising, single point]; under setting [2], 17.8 µM [rising, partial curve].

As to `Cc1ccc(NC(=O)Cn2c(=O)nc(-c3ccccc3)c3ccccc32)cc1`, the concentration at half-maximal activity (AC50) reads like this: under setting [1], 35.5 µM [falling, single point]; under setting [2], 35.5 µM [falling, single point].

As for `CCCOc1cccc(-c2cc(C(=O)NN)c3ccccc3n2)c1`, the AC50 is, setting by setting: under setting [1], 10 µM [rising, partial curve, poor fit]; under setting [2], 12.6 µM [rising, single point].

For the compound `O=c1c(CCc2ccccc2)nc2cncnc2n1Cc1ccccc1Cl`, the AC50 under setting [1] was 3.55 µM [falling, partial curve].

Consider `CCOc1cccc(CNC(=O)c2ccc(N3CCCC3)c(NC(=O)Nc3ccccc3CC)c2)c1`, for which the AC50 under setting [1] is 35.5 µM [falling, single point] and the AC50 under setting [2] is 35.5 µM [falling, single point].

By AC50 is commonly meant the concentration giving half of the maximal activity seen.
